# PubChem BioAssay AID1259424, University of Nebraska Medical Center | 2018
# Purpose: 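Find knockdowns that reproduce the expression shifts seen after KSR1 loss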 (primary screen)
# Cells: human HCT116 colon cancer cells
# Reagent: siRNA pool against human genes, 50 nM
# Measurement: 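Log2 levels of six mRNAs (branched-DNA multiplex), adjusted by two reference genes and the non-targeting median, then scored against the average KSR1 knockdown pattern as Pearson r and euclidean distance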
# Reading the numbers: mean correlation with KSR1 profile and KSR1 correlation: higher = expression change more like KSR1 knockdown; mean distance from KSR1 profile: higher = expression change less like KSR1 knockdown
# In all, the deposit lists about 14,000 reagents; below is an unselected part. 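Higher correlation or smaller distance means closer resemblance to KSR1 loss; control wells, including KSR1 knockdowns, recur on many plates.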 Reagents against one gene are numbered here. A reagent listed more than once was tested more than once; the source does not tell the runs apart. Reagent sequences are not shown. Not given: the time to read-out.
gene,reagent,mean correlation with KSR1 profile,mean distance from KSR1 profile,"KSR1 correlation, replicate 1","KSR1 correlation, replicate 2","KSR1 correlation, replicate 3"
TIMM10 (translocase of inner mitochondrial membrane 10),1,0.345,1.66,0.225,0.376,0.0533
PTPN2 (protein tyrosine phosphatase non-receptor type 2),1,0.346,1.24,0.349,0.467,0.144
INTS10 (integrator complex subunit 10),1,0.671,0.883,0.554,0.575,0.769
WASHC2A (WASH complex subunit 2A),1,0.628,1.94,0.527,0.735,0.657
BCAN (brevican),1,-0.0103,2.26,0.159,-0.0218,-0.111
TAOK2 (TAO kinase 2),1,-0.254,2.08,-0.0372,-0.301,-0.376
TAOK2 (TAO kinase 2),1,-0.143,2.21,0.23,-0.271,-0.0541
CPNE6 (copine 6),1,0.432,4.28,-0.0756,0.24,0.484
DGKI (diacylglycerol kinase iota),1,0.0324,3.09,-0.161,-0.0319,0.275
KCNK15 (potassium two pore domain channel subfamily K member 15),1,0.127,1.74,-0.144,0.0497,0.232
ZNF10 (zinc finger protein 10),1,0.584,0.952,0.702,0.657,0.155
KIAA1549,1,0.0313,1.79,-0.117,0.513,0.134
"TTTY5 (testis expressed transcript, Y-linked 5)",1,0.957,1.98,0.949,0.885,0.853
P2RY13 (purinergic receptor P2Y13),1,0.584,1.98,0.516,0.626,0.604
CHST6 (carbohydrate sulfotransferase 6),1,0.48,2.13,0.253,0.535,0.584
CLEC4M (C-type lectin domain family 4 member M),1,-0.133,1.43,0.0166,-0.333,-0.0417
CSNK1G3 (casein kinase 1 gamma 3),1,0.188,2.02,0.0758,0.14,-0.0259
CPM (carboxypeptidase M),1,-0.59,4.34,-0.543,-0.582,-0.703
GREB1L (GREB1 like retinoic acid receptor coactivator),1,0.656,1.24,0.655,0.513,0.73
COL9A2 (collagen type IX alpha 2 chain),1,-0.499,2.39,-0.492,-0.395,-0.568
MYOCD (myocardin),1,0.358,1.45,0.101,0.402,0.331

Just “KSR1 correlation, replicate 1” (6 entries from above):
WASHC2A (WASH complex subunit 2A)	0.527
BCAN (brevican)	0.159
CPNE6 (copine 6)	-0.0756
DGKI (diacylglycerol kinase iota)	-0.161
KCNK15 (potassium two pore domain channel subfamily K member 15)	-0.144
ZNF10 (zinc finger protein 10)	0.702

The listing continues:
gene,reagent,mean correlation with KSR1 profile,mean distance from KSR1 profile,"KSR1 correlation, replicate 1","KSR1 correlation, replicate 2","KSR1 correlation, replicate 3"
PRLH (prolactin releasing hormone),1,-0.339,2.91,-0.359,-0.2,-0.152
ZIC2 (Zic family zinc finger 2),1,0.0795,2.84,0.344,0.223,-0.0243
CDK5RAP3 (CDK5 regulatory subunit associated protein 3),1,0.369,5.02,0.469,0.463,-0.055
CEP76 (centrosomal protein 76),1,0.0466,1.8,0.169,0.196,-0.212
SH3YL1 (SH3 and SYLF domain containing 1),1,0.376,1.12,0.0547,0.0555,0.331
"POLR2K (RNA polymerase II, I and III subunit K)",1,-0.591,3.52,-0.296,-0.558,-0.588
PSMB10 (proteasome 20S subunit beta 10),1,0.544,1.52,0.542,0.535,0.561
PCDH18 (protocadherin 18),1,0.271,2.17,0.0829,0.341,0.142
CUL4A (cullin 4A),1,0.138,0.965,0.312,-0.426,-0.341
NFATC3 (nuclear factor of activated T cells 3),1,0.527,1.03,0.665,0.785,0.491
COPA (coat protein complex I subunit alpha),1,-0.33,6.23,-0.254,-0.267,-0.41
PNMA8A (PNMA family member 8A),1,-0.632,9.22,-0.436,-0.712,-0.437
CST2 (cystatin SA),1,-0.472,2.06,-0.295,-0.385,-0.539
TTC4 (tetratricopeptide repeat domain 4),1,-0.248,2.69,-0.262,-0.281,-0.314
AOX1 (aldehyde oxidase 1),1,-0.137,1.92,-0.0356,-0.0584,-0.475
PCED1A (PC-esterase domain containing 1A),1,-0.543,1.9,-0.639,-0.487,-0.4
CUX2 (cut like homeobox 2),1,-0.547,2.4,-0.314,-0.544,-0.582
OXCT1 (3-oxoacid CoA-transferase 1),1,0.467,1.24,0.34,0.537,0.452
SLC10A1,1,-0.713,2.87,-0.824,-0.674,-0.429
PPHLN1 (periphilin 1),1,-0.918,2.14,-0.761,-0.717,-0.829
PTPRU (protein tyrosine phosphatase receptor type U),1,0.301,1.85,0.156,0.333,0.363
PSG6 (pregnancy specific beta-1-glycoprotein 6),1,0.44,1.54,0.559,0.408,0.377
MAPK13 (mitogen-activated protein kinase 13),1,0.439,1.67,0.562,0.315,0.108
PHF20 (PHD finger protein 20),1,-0.371,1.58,-0.569,-0.299,-0.111
ESX1 (ESX homeobox 1),1,0.23,1.94,-0.12,0.118,0.424
VAMP1 (vesicle associated membrane protein 1),1,0.111,4.16,0.0623,0.141,0.232
EXPH5 (exophilin 5),1,-0.241,1.53,-0.0591,-0.425,-0.158
OSM (oncostatin M),1,-0.249,2.08,-0.135,-0.179,-0.387
APOC1 (apolipoprotein C1),1,0.882,0.998,0.857,0.839,0.795
KALRN (kalirin RhoGEF kinase),1,-0.492,2.59,-0.505,-0.402,-0.507
KALRN (kalirin RhoGEF kinase),2,-0.375,3.33,-0.214,-0.325,-0.682
GRIN2D (glutamate ionotropic receptor NMDA type subunit 2D),1,-0.564,2.49,-0.328,-0.695,-0.724
MORF4L2 (mortality factor 4 like 2),1,-0.422,1.94,-0.0438,-0.168,-0.579
CDK12 (cyclin dependent kinase 12),1,-0.106,2.16,0.0228,-0.122,-0.524
ARMC9 (armadillo repeat containing 9),1,0.338,3.04,0.205,0.326,0.382
NPBWR1 (neuropeptides B and W receptor 1),1,0.59,3.55,0.627,0.625,0.572
AIF1 (allograft inflammatory factor 1),1,-0.00261,2.23,0.222,-0.247,0.00754
ACTR3B (actin related protein 3B),1,-0.378,1.59,-0.238,-0.534,-0.319
SI (sucrase-isomaltase),1,-0.237,1.89,-0.6,-0.0525,-0.0109
CASKIN1 (CASK interacting protein 1),1,0.403,1.24,0.442,0.403,0.34
LBH (LBH regulator of Wnt signaling pathway),1,0.374,3.55,0.324,0.341,0.196
RTL10 (retrotransposon Gag like 10),1,-0.279,3.43,-0.228,-0.0127,-0.57
